Patent publication US10238619B1, “Composition and method of using the same” (priority 2017, dated 2019)
At least one compound was matched to its structure with a doubt left.

Experiments:
[1] = system: persistent (biofilm) form of Borrelia garinii; assay: effect on biofilm-like colonies, crystal violet staining; assay type: cell-based, Borrelia garinii CIP103362; settings: 0.3 mg/ml, 72 hours
Experimental: (§1) Two Borrelia species, namely, Borrelia burgdorferi and Borrelia garinii were tested in this study. Low passage isolates of the B31 strain of B. burgdorferi and CIP103362 strain of B. garinii were obtained from the American Type Culture Collection (Manassas, Va.). The stocks of both species were cultured in commonly used conditions, i.e. medium such as Barbour-Stoner-Kelly H (BSK-H) supplemented with 6% rabbit serum (Sigma, St Louis, Mo.) without antibiotics at 33° C. with 5% CO2, in sterile screw-cap 15 mL polypropylene tubes with or without gentile shaking depends on type of experiment. B31 strain is an isolate from Ixodes dammini whereas CIP103362 strain is an isolate from Ixodes ricinus. Both strains are well known human pathogenic factors of Lyme disease. […]
(§2) Evaluation of test compounds/mixtures on bacterial biofilm. Qualitative effect of the individual test compounds and their mixtures against biofilm-like colonies of B. burgdorferi and B. garinii was evaluated using commonly used and well accepted crystal violet (CV) staining method, according to protocol provided by Sapi et al. Briefly, 1×10^7 bacterial cells/mL from homogeneous cultures of spirochetes were grown on extracellular matrix proteins (i.e., collagen type I) coated four-well chambers and incubated for 1 week. […]

[2] = system: persistent (knob-shaped/rounded) form of Borrelia garinii; assay: effect on knob/rounded-shaped forms, LIVE/DEAD BacLight (SYTO9/IP) fluorescence; assay type: cell-based, Borrelia garinii CIP103362; settings: 0.3 mg/ml, 72 hours post-treatment
Borrelia sp. = settings: in vitro studies; cited from earlier work
[3] = system: persistent (biofilm) form of Borrelia burgdorferi; assay: effect on biofilm-like colonies, crystal violet staining; assay type: cell-based, Borrelia burgdorferi B31; settings: 0.3 mg/ml, 72 hours
Experimental: as §1, §2

[4] = system: active (spirochete) form of Borrelia garinii; assay: bacteriostatic/bactericidal effect on spirochetes, LIVE/DEAD BacLight (SYTO9/IP) fluorescence; assay type: cell-based, Borrelia garinii CIP103362; settings: 0.3 mg/ml
Experimental: as §1
(§3) Evaluation of bacteriostatic and bactericidal effect of individual test compounds and their mixtures on test microorganisms. To determine what compound and/or mixture will have the bacteriostatic and/or bactericidal effect a fluorescence method was used according to Sapi et al. Briefly, 5×10^6 bacterial cells/mL of the homogenous bacterial suspension was inoculated into each sterile 1.8 mL test tightly caps screwed tubes containing 1 mL BSK-H medium, supplemented with the test compound/mixture of interest. […] The tubes were then incubated at 33° C. and viability was monitored at regular intervals for up to 72 hours. […]

[5] = system: persistent (knob-shaped/rounded) form of Borrelia burgdorferi; assay: effect on knob/rounded-shaped forms, LIVE/DEAD BacLight (SYTO9/IP) fluorescence; assay type: cell-based, Borrelia burgdorferi B31; settings: 0.3 mg/ml, 72 hours post-treatment
[6] = system: active (spirochete) form of Borrelia burgdorferi; assay: bacteriostatic/bactericidal effect on spirochetes, LIVE/DEAD BacLight (SYTO9/IP) fluorescence; assay type: cell-based, Borrelia burgdorferi B31; settings: 0.3 mg/ml
Experimental: as §1, §3

For `C[C@H]1c2cccc(O)c2C(=O)C2=C(O)[C@]3(O)C(=O)C(C(N)=O)=C(O)[C@@H](N(C)C)[C@@H]3[C@@H](O)[C@@H]21` [doxycycline], the susceptibility of biofilm [1] is listed as “Neither spirochetes nor latent forms (knob-shaped/rounded forms, biofilm) of B. burgdorferi and B. garinii are susceptible”, the “susceptibility of latent rounded forms (Live/Dead ratio)” value [2] is listed as “Neither spirochetes nor latent forms (knob-shaped/rounded forms, biofilm) of B. burgdorferi and B. garinii are susceptible” and the action against biofilms (Borrelia sp.) is listed as “moderate action”. The “effectiveness against active (vegetative) form” value (Borrelia sp.) was “effective”, the “effectiveness against latent knob-shaped/rounded forms” value (Borrelia sp.) was “ineffective” and the susceptibility of biofilm [3] was “Neither spirochetes nor latent forms (knob-shaped/rounded forms, biofilm) of B. burgdorferi and B. garinii are susceptible”. For the same molecule, the susceptibility of spirochetes [4] was “Neither spirochetes nor latent forms (knob-shaped/rounded forms, biofilm) of B. burgdorferi and B. garinii are susceptible”, the “susceptibility of latent rounded forms (Live/Dead ratio)” value [5] was “Neither spirochetes nor latent forms (knob-shaped/rounded forms, biofilm) of B. burgdorferi and B. garinii are susceptible” and the susceptibility of spirochetes [6] was “Neither spirochetes nor latent forms (knob-shaped/rounded forms, biofilm) of B. burgdorferi and B. garinii are susceptible”.
